Values joined by “and” are separate entries in the source; they are usually repeats but may differ in a detail not shown here. Identical values can stand only once. The list shows a part of the results. Shown are side measurements of this screen, not its main read-out; they come without a call. Most of these compounds were active or inconclusive in the main read-out, so they are no random draw. Words in brackets tell the shape of the fitted curve; partial curves, single points and poor fits give uncertain potencies.
Experiment: qHTS Assay for Modulators of Lamin A Splicing
Settings: HeLa LMNA splicing GFP/RFP minigene ratio, 48 h
Outline: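 S3 HeLa cells stably expressing lamin A-EGFP splicing minigene plus DsRed2, 600 cells/well, 48 h compound exposure at 37C. Laser-scanning cytometry; analysed as GFP (500-530 nm)/RFP (575-640 nm) total intensity ratio; 0.5% DMSO vehicle.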

[1] = measured here: RFP viability control channel
[2] = measured here: GFP splicing reporter channel

Compound	AC50 [1]	AC50 [2]
COc1ccc(Nc2nnc(SCc3cn4c(C)cccc4n3)s2)cc1	35.5 µM [rising, single point]	
CCOc1ccc2c(c1)C(c1cccs1)=NNC(c1cccnc1)=N2	11.2 µM [rising, single point]	
CCCNS(=O)(=O)c1ccc(CCC(=O)NCc2ccc3c(c2)OCO3)cc1	35.5 µM [rising, single point]	25.1 µM [rising, single point]
Cc1cc(Cl)cc(Cl)c1OCC(=O)NCc1ccco1	0.0316 µM [falling, full curve, poor fit]	
Cn1nc(C(=O)NNc2c(F)c(F)cc(F)c2F)c2ccccc2c1=O	17.8 µM [rising, partial curve, poor fit]	
COCCN(Cc1cc2cc3c(cc2nc1Cl)OCO3)C(=O)Nc1ccccc1OC	12.6 µM [rising, partial curve]	
Cc1cc(C)c2oc(C(=O)Nc3ccc(S(=O)(=O)N4CCCC(C)C4)cc3)cc(=O)c2c1 (stereo not drawn)		12.6 µM [rising, partial curve, poor fit]
O=c1cc(-c2ccccc2)[nH]c2ccc(F)cc12	14.1 µM [rising, single point]	5.62 µM [rising, single point]
Nc1ncnc(Nc2cccc(Cl)c2Cl)n1	0.0178 µM [rising, full curve, poor fit]	0.112 µM [rising, partial curve]
CCN1CCC2(CC1)N=C(c1ccc(F)cc1)C(=S)N2C(=O)c1ccc(C)cc1	35.5 µM [rising, single point]	
CCCn1cnc2c(cnn2-c2ccc(F)cc2)c1=O	14.1 µM [rising, single point]	
CC1=C(C(=O)Nc2ccccc2)C(c2ccc(C(=O)O)cc2)n2ncnc2N1 (stereo not drawn)	12.6 µM [rising, partial curve, poor fit]	
Cc1ccc(NC(=O)CCCn2c(=O)c3cccn3c3ccccc32)c(C)c1	6.31 µM [rising, partial curve, poor fit]	0.794 µM [rising, full curve, poor fit]
COc1cc(C(=O)c2ccccc2Cl)c([N+](=O)[O-])cc1OC	0.794 µM [rising, partial curve]	0.224 µM [rising, full curve]
C=CCN=c1scc(-c2ccc(F)cc2)n1/N=C/c1ccccn1	14.1 µM [rising, single point]	
O=C(Cc1ccc(Cl)c(Cl)c1)Nc1ccccc1N1CCOCC1	5.62 µM [falling, single point]	
Cc1ccc(-c2csc(NC(=O)c3cccc(S(=O)(=O)N4CCN(C)CC4)c3)n2)cc1	14.1 µM [rising, partial curve]	12.6 µM [rising, partial curve, poor fit]
NNC(=O)c1cc2c(N3CCC(Cc4ccccc4)CC3)ncnc2s1	31.6 µM [rising, single point]	
NCCc1cnc[nH]1		1 µM [falling, full curve]
C(=C\c1ccccc1)/CN1CCN(c2ncnc3c2oc2ccccc23)CC1	2.82 µM [rising, full curve]	
COc1ccc(NC(=O)c2cc3c(s2)CCC3)cc1S(=O)(=O)N1CCOCC1	31.6 µM [rising, single point]	
CN1CCN(C(=O)c2cc(Cl)ccc2Cl)CC1	0.0141 µM [falling, full curve, poor fit]	
Cc1cccc(NC(=S)NNc2ncc(C(F)(F)F)cc2Cl)c1	12.6 µM [rising, partial curve]	11.2 µM [rising, partial curve, poor fit]
NS(=O)(=O)c1ccc(CCNC(=O)NC2(C(F)(F)F)Oc3ccccc3O2)cc1	35.5 µM [rising, single point]	
Cc1cc(C)c(C)c(S(=O)(=O)N2CCN(CC(=O)c3c(N)n(Cc4ccccc4)c(=O)n(C)c3=O)CC2)c1C	17.8 µM [rising, single point]	
COc1ccc(-c2nnn(CC(=O)N(Cc3cccs3)C(C)C(=O)NC3CCCC3)n2)cc1OC (stereo not drawn)	14.1 µM [rising, single point]	
CCOC(=O)C1CCN(C2CC(=O)N(c3ccc(OCC)cc3)C2=O)CC1 (stereo not drawn)	35.5 µM [rising, single point]	
O=c1oc2ccccc2nc1/C=C(O)/C=C/c1ccc(F)cc1	17.8 µM [rising, single point]	

Compound	AC50 [1]	AC50 [2]
CCCn1c(SCC(=O)NCC2CCCO2)nc2c1c(=O)n(C)c(=O)n2C (stereo not drawn)		11.2 µM [rising, single point]
Cc1ccc(C(C)C)c(OCC(=O)Nc2ccccc2N2CCN(C)CC2)c1	11.2 µM [rising, single point]	
Cn1c(=O)n(C)c2cc(NC(=O)CCl)ccc21	2.82 µM [falling, partial curve, poor fit]	2.82 µM [falling, partial curve, poor fit]
O=C(c1ccc(S(=O)(=O)c2cccc(Cl)c2)c([N+](=O)[O-])c1)N1CCN(Cc2ccccc2)CC1	35.5 µM [falling, single point]	35.5 µM [falling, single point]
Cc1ccc(S(=O)(=O)N2CCCCC2C(=O)NCc2ccco2)cc1 (stereo not drawn)	0.316 µM [falling, single point]	
Clc1cccc(-n2cc(-c3ccccc3)c3c(N4CCCCC4)ncnc32)c1	0.562 µM [falling, full curve]	4.47 µM [falling, partial curve]
Cn1c(O)c(/C=C2\C=NN=C2c2ccccc2)sc1=S	35.5 µM [falling, single point]	
Fc1ccc(-n2cc(-c3ccccc3)c3c(NCCc4ccccc4)ncnc32)cc1	1 µM [rising, full curve, poor fit]	
CCC(C)(C)NC(=O)C1CCN(S(=O)(=O)c2c(C)noc2/C=C/c2ccc(C)cc2)CC1	0.00316 µM [falling, full curve, poor fit]	
Cn1c(/C(C#N)=C(\O)COc2ccc3ccccc3c2)nc2ccccc21		0.00501 µM [rising, full curve, poor fit]
CCOC(=O)N1CCC(n2c(SCC(=O)NCCC3=CCCCC3)nc3ccccc3c2=O)CC1	10 µM [rising, partial curve, poor fit]	
COc1cccc(CNC(=O)c2oc3c(c2C)-c2nn(Cc4cccc(Cl)c4)cc2CC3)c1	35.5 µM [falling, partial curve]	35.5 µM [falling, partial curve]
COc1ccc(/C=C/C(=O)Nc2ccc3c(c2)CCC3)cc1OC	12.6 µM [rising, partial curve]	
CCOc1ccccc1CNC(=O)C1CCN(c2nc3ccccc3o2)CC1	15.8 µM [rising, partial curve]	11.2 µM [rising, partial curve, poor fit]
CCOC(=O)CN1C(=O)N[C@@H](c2cccc(C(F)(F)F)c2)[C@H](C(C)=O)[C@H]1C		0.000891 µM [rising, full curve, poor fit]
COc1ccc(-c2nnc(COc3ccc4ccccc4c3)o2)cc1OC	14.1 µM [rising, single point]	
CC(C)Cn1c(/C=C/c2ccccc2)nc2ccccc21	17.8 µM [rising, partial curve, poor fit]	
CN(C)S(=O)(=O)c1cccc(NC(=O)COC(=O)c2cn(-c3ccccc3)nc2-c2ccccc2)c1	35.5 µM [rising, single point]	35.5 µM [rising, single point]
Cc1ccccc1NC(=O)CN1C(=O)N/C(=C\c2cccn2-c2cccc(C(=O)O)c2)C1=O	0.00447 µM [falling, full curve, poor fit]	0.158 µM [falling, full curve, poor fit]
Cc1ncc(CC(=O)n2cc(C(=O)c3cc(Cl)ccc3O)cn2)s1		5.62 µM [rising, partial curve]
NCCCC(=O)O	5.62 µM [rising, single point] and 6.31 µM [falling, single point] and 7.94 nM [falling, full curve, poor fit]	5.62 µM [rising, single point] and 50.1 nM [rising, full curve, poor fit]
COc1cccc(OCc2ccc(C(=O)NCC3CCCO3)cc2)c1 (stereo not drawn)	14.1 µM [rising, partial curve]	17.8 µM [rising, single point]
c1csc(-c2nnc(NC3CCCCC3)c3ccccc23)c1	35.5 µM [rising, single point]	
Cc1ccc(-c2nn(C(C)(C)C)c3ncnc(N)c23)cc1		17.8 µM [falling, single point]
Cc1nn(Cc2ccccc2)c(C)c1C(=O)OCC(=O)c1cc(C)n(CC(F)(F)F)c1C		28.2 µM [rising, single point]
Nc1ncnc2c1nc(Cl)n2C1OC(CO)C(O)C1O (stereo not drawn)	0.891 µM [rising, full curve]	0.398 µM [rising, full curve]
COc1ccccc1C(=O)OCCNC(=O)Cn1cnc2c1c(=O)n(C)c(=O)n2C	0.00447 µM [falling, full curve, poor fit]	0.0398 µM [falling, full curve, poor fit]

Source: PubChem BioAssay AID1487 (National Center for Advancing Translational Sciences (NCATS), 2009)
